Data from article PMC5133708.
Results are given in words; binding and its absence hold for the method and conditions named. Binding seen in cells or lysates may run through a third protein. Some results given as binding are weak or reduced against the parent protein; the word gives no strength.

Amino acid sequences for entries named in this document (tags omitted). A change or cut given only in a name is not applied to a line headed by its entry. Chains listed by the source or under a name are the forms on record and can include a tag or linker.
UniProt Q00987: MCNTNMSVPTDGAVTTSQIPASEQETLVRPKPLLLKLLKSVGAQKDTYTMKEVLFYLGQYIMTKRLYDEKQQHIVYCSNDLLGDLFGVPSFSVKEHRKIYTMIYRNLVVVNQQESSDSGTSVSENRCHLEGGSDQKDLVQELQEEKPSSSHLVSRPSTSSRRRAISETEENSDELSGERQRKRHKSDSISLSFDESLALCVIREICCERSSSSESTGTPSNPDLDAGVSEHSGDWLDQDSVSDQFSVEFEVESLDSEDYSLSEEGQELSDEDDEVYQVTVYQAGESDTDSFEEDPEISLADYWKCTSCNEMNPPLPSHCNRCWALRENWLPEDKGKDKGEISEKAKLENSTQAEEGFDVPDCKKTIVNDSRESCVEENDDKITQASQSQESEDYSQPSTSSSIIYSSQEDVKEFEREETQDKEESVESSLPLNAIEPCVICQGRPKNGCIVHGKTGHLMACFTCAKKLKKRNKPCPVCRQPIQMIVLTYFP
UniProt P06748: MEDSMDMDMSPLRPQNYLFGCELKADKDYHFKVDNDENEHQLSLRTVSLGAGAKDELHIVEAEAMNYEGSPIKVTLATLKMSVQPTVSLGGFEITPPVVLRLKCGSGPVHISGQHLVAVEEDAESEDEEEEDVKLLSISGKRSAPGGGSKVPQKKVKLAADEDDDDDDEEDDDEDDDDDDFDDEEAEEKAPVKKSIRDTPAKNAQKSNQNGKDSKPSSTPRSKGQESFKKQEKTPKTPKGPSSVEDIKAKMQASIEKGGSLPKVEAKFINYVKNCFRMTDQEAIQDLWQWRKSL
FLAG-NPM1 W288/290A mutant (P06748, form named): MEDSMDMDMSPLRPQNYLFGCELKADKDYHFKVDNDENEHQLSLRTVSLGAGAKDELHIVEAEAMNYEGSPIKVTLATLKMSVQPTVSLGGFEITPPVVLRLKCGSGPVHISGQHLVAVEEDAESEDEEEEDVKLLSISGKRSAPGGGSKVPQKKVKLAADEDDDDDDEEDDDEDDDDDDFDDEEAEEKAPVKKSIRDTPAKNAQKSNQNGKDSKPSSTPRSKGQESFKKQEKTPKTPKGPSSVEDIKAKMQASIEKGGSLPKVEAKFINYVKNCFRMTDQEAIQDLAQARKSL

Target: Human double minute 2 homologue (HDM2) (human (endogenous in U2OS)) (UniProt Q00987)
Test: co-IP; antibody against HDM2 and Protein A/G-Agarose on lysates of NPM1-silenced U2OS cells with FLAG-NPM1 WT, W288/290A or C275S added back, after Act.D treatment; lysis buffer 50 mM Tris-HCl pH 7.4, 1% Triton X-100, 150 mM NaCl, 1 mM EDTA, 4 °C; western blot

binding	Substance
binds	FLAG-NPM1 WT (nucleophosmin, B23) (from UniProt P06748 1-294)
binds	FLAG-NPM1 W288/290A mutant (from UniProt P06748 1-294)
no binding	FLAG-NPM1 C275S mutant (from UniProt P06748 1-294)
